Experimental data: patent publication US20110039783A1 (DAIICHI SANKYO COMPANY LIMITED, priority 2007, published 2011)
Where “and” joins values, the source holds several entries; their conditions need not be identical. Identical values can stand only once. Where no end group is shown, it is not given here.

Test: general procedure: Fmoc solid-phase peptide synthesis; Fmoc-Amide resin; HBTU/HOBt
Settings: whole synthesis, scale 0.25 nmol

NRDLFFRRLQAYFK-NH2
crude mass: 352.6 mg
isolated mass (run 1): 267.7 mg and 245 mg
